Patent US8235110B2, “Preconditioning an oilfield reservoir” (Gushor Inc., priority 2006, dated 2012)

Test: Physical model recovery experiment on oil sand core sample flooded with water solution of preconditioning agent
Conditions: for Oil amount Recovered: 20 ml H2O saturated with agent, 225 g oil sand sample, recovery at 85° C.

Row | SMILES | Oil amount Recovered [g] | Viscosity of recovered oil (measured at 20° C.) [cP] | Viscosity of recovered oil (measured at 50° C.) [cP] | Viscosity of recovered oil (measured at 80° C.) [cP]
1 | CCCC(C)=O [MPK, methyl propyl ketone] | 12.4 | 18951 | 1461 | 288
2 | COC(C)(C)C [MTBE, methyl tertiary-butyl ether] | 10.9 | 50470 | 2498 | 401
3 | Oc1ccccc1 [Phenol, phenol] | 9.9 | 64691 | 2600 | 351
